We go through 38 compounds from PubChem BioAssay AID2685 (National Center for Advancing Translational Sciences (NCATS), 2010).

Some of the results follow. Further columns of the screen follow, without active or inactive calls. The list favours compounds with an active or inconclusive main result. The note in brackets gives the kind of curve behind each potency; many fits are weak.

The nature of the test: qHTS Assay for Lipid Storage Modulators in Drosophila S3 Cells.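 On cell number change: cells counted by Cell Tracker Red CMTPX staining in the red channel.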 To be noted: BODIPY lipid droplet fluorescence, 18-24 h; for cell number change: measured here: cell count max response, cells fed with added oleic acid. The essentials: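 Drosophila S3 cells got compounds at several concentrations plus oleic acid (400 uM solution). Laser-scanning cytometry with 488 nm excitation read lipid droplets at 500-530 nm and cells at 575-640 nm. Percent activity was relative to 20 uM Triacsin C.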
Background: Quantitative high-throughput screening tests each substance at several concentrations.

Setting [1] is: measured here: lipid fluorescence (Fed channel) AC50, cells fed with added oleic acid.
[2] abbreviates: measured here: cell number channel AC50, cells fed with added oleic acid.

By AC50 is commonly meant the concentration giving half of the maximal activity seen. Higher therefore signals activity only at high concentration. On to `CCOc1ccc(NC(=O)N2CCN(Cc3ccc4c(c3)OCO4)CC2)cc1`, for which the cell number change is -18.9%. Moreover, under setting [1], the AC50 is 23.1 µM [falling, single point].

With `CC(OC(=O)c1ccc(-n2cnnn2)cc1)C(=O)Nc1ccccc1[N+](=O)[O-]` (centres undefined), the cell number change was -5.13%. The concentration at half-maximal activity (AC50) under setting [1] is 0.164 µM [falling, full curve, poor fit].

With `NC(=S)Nc1cccc2cnccc12`, the cell number change was determined as 18.2%. Also, the AC50 under setting [1] was 29.1 µM [falling, single point].

Consider `Cc1cccc(COc2ccc(S(=O)(=O)N3CCOCC3)cc2[N+](=O)[O-])c1`, for which the cell number change was determined as 32.3%. Further, the AC50 under setting [2] was 4.61 µM [rising, partial curve]. Further, the AC50 under setting [1] is 18.4 µM [falling, partial curve].

As for `O=C1CC(c2ccsc2)c2cc3c(cc2N1)OCCO3` (centres undefined), the cell number change came to 12.2%. Also, the AC50 under setting [2] is 3.66 µM [falling, single point].

For `CC(=O)N1CCOc2ccc(S(=O)(=O)N3CCC(C(=O)Nc4ccccc4F)CC3)cc21`, the cell number change is 9.16%. In addition, the AC50 under setting [1] is 16.4 µM [rising, partial curve].

As for `CCOc1ccc(Br)cc1-c1noc(-c2cccs2)n1`, the cell number change is -16%. In addition, under setting [1], the AC50 was 3.66 µM [rising, single point].

As for `Cc1cc(Oc2ccccc2)nc(N)n1`, the cell number change was -31.4%. The AC50 under setting [2] was 32.6 µM [falling, single point]. In addition, the AC50 under setting [1] was 23.1 µM [falling, single point].

For the compound `CC1CCCC(C)N1C(=O)COC(=O)c1ccc(O)cc1` (centres undefined), the cell number change worked out at 37.8%. In addition, the AC50 under setting [2] was 32.6 µM [rising, partial curve].

On to `COc1ccc(OC)c(CN2CCN(C(=O)CCNC(=O)c3ccc(Br)cc3)CC2)c1`, for which the cell number change turned out to be 144%. For the same compound, under setting [2], the AC50 is 18.4 µM [rising, partial curve]. Further, under setting [1], the AC50 was 16.4 µM [falling, single point].

For `CC(/C=N\NC(=O)Cn1c(C)nc2ccccc21)=C\c1ccccc1`, the cell number change was -39.5%. Moreover, the AC50 under setting [2] was 18.4 µM [falling, partial curve]. Besides, the AC50 under setting [1] is 29.1 µM [falling, single point].

Turning to `O=C(N/N=C/c1ccc(OCC(=O)N2CCCC2)cc1)C(=O)NC1CC1`, the cell number change is -0.951%. Besides, under setting [1], the AC50 is 29.1 µM [rising, single point].

Turning to `CC(C)Cn1cnc2c1c(=O)n(CC(=O)O)c(=O)n2Cc1ccccc1`, the cell number change was -8.33%.

For the compound `Cc1cccc(CNC(=O)c2ccc(NC(=O)C3=CSCCO3)cc2)c1`, the cell number change is 22.4%. Also, under setting [2], the AC50 is 0.13 µM [rising, full curve, poor fit]. Also, under setting [1], the AC50 is 1.84 µM [rising, partial curve].

For the compound `Oc1c(Cl)cc(Cl)cc1C=Nc1cc(C(F)(F)F)ccc1N1CCc2ccccc2C1`, the cell number change came out at 3.19%. Further, under setting [1], the AC50 was 3.66 µM [rising, partial curve, poor fit].

Turning to `CCN(CC1CCCN(CCc2cccc(F)c2)C1)C(=O)c1ccc(CSC)o1` (centres undefined), the cell number change was -10.9%. Moreover, the AC50 under setting [1] was 6.51 µM [rising, single point].

With `O=C(CSc1ccc2nnc(-c3cccnc3)n2n1)N1CCOCC1`, the cell number change was 4.29%. The AC50 under setting [2] was 1.46 µM [rising, partial curve, poor fit]. Also, the AC50 under setting [1] is 6.51 µM [rising, single point].

Regarding `Cc1ccc(NC(=O)COc2cccnc2[N+](=O)[O-])cc1S(=O)(=O)N1CCCCC1`, the cell number change was -22.4%. Under setting [1], the AC50 was 29.1 µM [falling, single point].

As to `O=C(C1CC1)N1CCN(C(c2ccccc2)c2ccccc2)CC1`, the cell number change came to 39%. Further, under setting [2], the AC50 is 18.4 µM [rising, partial curve]. For the same compound, the AC50 under setting [1] is 1.3 µM [rising, partial curve, poor fit].

As to `CCOC(=O)c1cc(C(=O)Nc2ccc(S(=O)(=O)Nc3ccc(OC)cc3)cc2)nn1C`, the cell number change is -17.4%.

Turning to `Cc1cc(=O)oc(C)c1C(=O)NCCN1CCOCC1`, the cell number change was found to be 2.88%.

Consider `CC1CCCC(C(=O)O)N1C(=O)CCSSCCC(=O)N1C(C)CCCC1C(=O)O` (centres undefined), for which the cell number change was -33%. Further, under setting [2], the AC50 was 3.26 µM [falling, partial curve, poor fit]. Moreover, the AC50 under setting [1] is 5.8 µM [falling, full curve].

For the compound `O=C(COc1ccccc1)N1CCCC1`, the cell number change came out at 42.1%. The AC50 under setting [2] is 13 µM [rising, partial curve, poor fit].

For `CN1CCN(C2CCCCC2NS(=O)(=O)c2ccc(Cl)cc2)CC1` (centres undefined), the cell number change was -3.36%.

On to `C/C(=N\NC(=O)c1ccco1)c1ccc(NC(=O)c2cccs2)cc1`, for which the cell number change stood at 10.5%. For the same compound, under setting [1], the AC50 is 0.731 µM [rising, single point].

`COc1ccc(Br)cc1/C=N/NC(=O)c1ccc(OC)c(OC)c1`: the cell number change worked out at 22.2%. For the same compound, under setting [2], the AC50 is 3.66 µM [rising, single point]. For the same compound, the AC50 under setting [1] is 4.11 µM [rising, full curve, poor fit].

Regarding `O=C(Nc1ccc(Oc2cccnc2)cc1)c1cccc([N+](=O)[O-])c1`, the cell number change is -9.7%. The AC50 under setting [1] is 0.651 µM [rising, full curve].

`COc1ccc(C)cc1Nc1n[n+](C)c(-c2c3ccccc3cc3ccccc23)s1`: the cell number change amounted to 11%.

Regarding `Cc1cc(C)cc(-c2nnc(SCc3ccc(C(=O)O)cc3)o2)c1`, the cell number change stood at 15.2%.

Consider `CCC(C)(C)NC(=O)C(c1cccc(OC)c1OC)N(C(=O)CCC(=O)Nc1cc(C)on1)c1ccc2c(c1)OCCO2` (centres undefined), for which the cell number change was determined as 7.08%.

In the case of `COc1ccc(CNC(=O)C2CC(=O)N(c3ccc(OCC(=O)N4CCCCC4)cc3)C2)cc1` (centres undefined), the cell number change is -1.85%. In addition, under setting [1], the AC50 is 0.146 µM [rising, full curve, poor fit].

In the case of `O=C(CCN1C(=O)C2CCCCC2C1=O)Nc1nc2c(F)cc(F)cc2s1` (centres undefined), the cell number change was -28.8%. In addition, under setting [1], the AC50 is 29.1 µM [falling, single point].

For the compound `COC(=O)C1=C(C(=O)OC)C2C(C)=CC(C)=CN2C(C(=O)OC)=C1C(=O)OC` (centres undefined), the AC50 under setting [2] was 0.731 µM [rising, single point].

Turning to `O=C(NCC1CCCO1)c1cccc(NS(=O)(=O)c2ccccc2)c1` (centres undefined), the cell number change was 2.04%.

On to `O=C(/C=C\Nc1ccc(S(=O)(=O)Nc2ncccn2)cc1)c1cccc2ccccc12`, for which the cell number change was determined as 38.5%. Further, under setting [2], the AC50 is 5.17 µM [rising, partial curve]. The AC50 under setting [1] was 7.31 µM [rising, partial curve].

On to `CC1(C(=O)N2CCC(CC3CC(c4cccc(Br)c4)=NO3)(C(=O)NCC3CCCCC3)CC2)CC1` (centres undefined), for which the cell number change is 1.94%.

`CCOC(=O)Cn1nnnc1C(C(C)C)N(Cc1cccs1)Cc1cc2cc(C)ccc2[nH]c1=O` (centres undefined): the cell number change is -3.29%.

For the compound `CCOC(=O)N1CCC(N2C(=O)c3ccc(C(=O)NCCC(C)C)cc3C2=O)CC1`, the cell number change was 15.3%.
